{
  "source": "the odorant receptor screen of Mainland et al. (2015)",
  "assay_in_all_cases": "odorant receptor activation (CRE luciferase / Renilla) (fold of no-odor wells); higher = more activation",
  "conditions_in_all_cases": "100 µM",
  "key": {"OR51F2 clone 1330": {"system": "OR51F2 clone 1330"}, "OR51G1 clone 1165": {"system": "OR51G1 clone 1165"}, "OR51G2 clone 1199": {"system": "OR51G2 clone 1199"}, "OR51H1 clone 1187": {"system": "OR51H1 clone 1187"}, "OR51I1 clone 1555": {"system": "OR51I1 clone 1555"}, "OR51I2 clone 1133": {"system": "OR51I2 clone 1133"}, "OR51J1 R75H clone 1698": {"system": "OR51J1 R75H clone 1698"}, "OR51L1 I281M clone 1535": {"system": "OR51L1 I281M clone 1535"}, "[1]": {"system": "OR51L1 T196I/A207V clone 1533"}, "OR51L1 clone 1183": {"system": "OR51L1 clone 1183"}},
  "note": "“And” between values parts separate entries of the source, which are not always exact repeats. Equal values may be shown once. Some of the results follow. Single wells; the ratio to wells without odorant was worked out here, and repeats agree poorly.",
  "data": [
    {"smiles": "CS", "note": "[methanethiol]", "values": [
      {"measurement": "odorant receptor activation", "setting": "OR51F2 clone 1330", "result": 0.829},
      {"measurement": "odorant receptor activation", "setting": "OR51G1 clone 1165", "result": 1.03},
      {"measurement": "odorant receptor activation", "setting": "OR51G2 clone 1199", "result": 1.09},
      {"measurement": "odorant receptor activation", "setting": "OR51H1 clone 1187", "result": 0.758},
      {"measurement": "odorant receptor activation", "setting": "OR51I1 clone 1555", "result": 0.932},
      {"measurement": "odorant receptor activation", "setting": "OR51I2 clone 1133", "result": 0.883},
      {"measurement": "odorant receptor activation", "setting": "OR51J1 R75H clone 1698", "result": 0.772},
      {"measurement": "odorant receptor activation", "setting": "OR51L1 I281M clone 1535", "result": 0.869},
      {"measurement": "odorant receptor activation", "setting": "[1]", "result": 0.847},
      {"measurement": "odorant receptor activation", "setting": "OR51L1 clone 1183", "result": 1.19}
    ]},
    {"smiles": "CCOc1cc(C=O)ccc1O", "note": "[ethyl vanillin]", "values": [
      {"measurement": "odorant receptor activation", "setting": "OR51F2 clone 1330", "result": "0.63 and 1.06"},
      {"measurement": "odorant receptor activation", "setting": "OR51G1 clone 1165", "result": "1.33 and 1.15"},
      {"measurement": "odorant receptor activation", "setting": "OR51G2 clone 1199", "result": "1.03 and 1.15"},
      {"measurement": "odorant receptor activation", "setting": "OR51H1 clone 1187", "result": "1.5 and 1.16"},
      {"measurement": "odorant receptor activation", "setting": "OR51I1 clone 1555", "result": 0.951},
      {"measurement": "odorant receptor activation", "setting": "OR51I2 clone 1133", "result": "1.74 and 0.952"},
      {"measurement": "odorant receptor activation", "setting": "OR51J1 R75H clone 1698", "result": 0.865},
      {"measurement": "odorant receptor activation", "setting": "OR51L1 I281M clone 1535", "result": "1.06 and 1.86 and 1.22"},
      {"measurement": "odorant receptor activation", "setting": "[1]", "result": "1.27 and 2.02 and 1.66"},
      {"measurement": "odorant receptor activation", "setting": "OR51L1 clone 1183", "result": "1.35 and 1.14"}
    ]},
    {"smiles": "CCCCOC(C)=O", "note": "[butyl acetate]", "values": [
      {"measurement": "odorant receptor activation", "setting": "OR51F2 clone 1330", "result": 0.784},
      {"measurement": "odorant receptor activation", "setting": "OR51G1 clone 1165", "result": 0.939},
      {"measurement": "odorant receptor activation", "setting": "OR51G2 clone 1199", "result": 0.972},
      {"measurement": "odorant receptor activation", "setting": "OR51H1 clone 1187", "result": 1.04},
      {"measurement": "odorant receptor activation", "setting": "OR51I1 clone 1555", "result": 0.818},
      {"measurement": "odorant receptor activation", "setting": "OR51I2 clone 1133", "result": 1.25},
      {"measurement": "odorant receptor activation", "setting": "OR51J1 R75H clone 1698", "result": 1.08},
      {"measurement": "odorant receptor activation", "setting": "OR51L1 I281M clone 1535", "result": 0.912},
      {"measurement": "odorant receptor activation", "setting": "[1]", "result": 0.909},
      {"measurement": "odorant receptor activation", "setting": "OR51L1 clone 1183", "result": 0.911}
    ]},
    {"smiles": "CCC(C)=O", "note": "[2-butanone]", "values": [
      {"measurement": "odorant receptor activation", "setting": "OR51F2 clone 1330", "result": 0.74},
      {"measurement": "odorant receptor activation", "setting": "OR51G1 clone 1165", "result": 0.841},
      {"measurement": "odorant receptor activation", "setting": "OR51G2 clone 1199", "result": 1.09},
      {"measurement": "odorant receptor activation", "setting": "OR51H1 clone 1187", "result": 0.911},
      {"measurement": "odorant receptor activation", "setting": "OR51I1 clone 1555", "result": 0.946},
      {"measurement": "odorant receptor activation", "setting": "OR51I2 clone 1133", "result": 0.989},
      {"measurement": "odorant receptor activation", "setting": "OR51J1 R75H clone 1698", "result": 0.714},
      {"measurement": "odorant receptor activation", "setting": "OR51L1 I281M clone 1535", "result": 1.05},
      {"measurement": "odorant receptor activation", "setting": "[1]", "result": 0.88},
      {"measurement": "odorant receptor activation", "setting": "OR51L1 clone 1183", "result": 0.867}
    ]}
  ]
}
